{"source": "patent US7863264B2", "about": "“Stabilised compositions having antibacterial activity” (Coloplast A/S, priority 2000, dated 2011)", "experiment": "Solubility for 1:1 complexes (silver by atomic absorption spectroscopy)", "conditions": "silver complexes of the named preferred ligands; ratio not stated", "note": "Some results were stated once for a whole list of compounds, not compound by compound.", "data": [{"smiles": "CN1C(=O)NC(=O)C(C)(C)C1=O", "note": "[1,5,5-trimethyl-barbituric acid]", "values": [{"measurement": "solubility in water", "value": "above 20 mg Ag/l"}]}]}
